The exact form of at least one protein or probe is not confirmed. At least one verdict rests on a figure or table, not on a statement of the authors. Tags and fusion partners may be left off the protein sequences shown.

Series [1] has as its target T1, KorB (plasmid RK2, expressed in Escherichia coli) (UniProt P07674).
T1 sequence (looked up, limits assumed): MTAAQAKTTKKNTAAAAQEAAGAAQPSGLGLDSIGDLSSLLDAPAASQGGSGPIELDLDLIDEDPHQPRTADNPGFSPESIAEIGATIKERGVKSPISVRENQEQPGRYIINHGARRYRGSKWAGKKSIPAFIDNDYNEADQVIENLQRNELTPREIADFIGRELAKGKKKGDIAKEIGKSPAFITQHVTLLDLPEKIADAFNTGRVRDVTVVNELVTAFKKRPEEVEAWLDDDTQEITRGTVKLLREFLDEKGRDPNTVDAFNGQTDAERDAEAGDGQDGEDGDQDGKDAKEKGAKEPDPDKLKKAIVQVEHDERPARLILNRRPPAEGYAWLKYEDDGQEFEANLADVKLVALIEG
As to the kind of experiment: native MS. As to conditions: 2.5-fold excess KorB displaces Eσ70; recombinant protein; protein details: C-terminal His6 (pET21b).

A further series has as its target T2, KorA (plasmid RK2) (UniProt P03052).
T2 sequence (looked up, limits assumed): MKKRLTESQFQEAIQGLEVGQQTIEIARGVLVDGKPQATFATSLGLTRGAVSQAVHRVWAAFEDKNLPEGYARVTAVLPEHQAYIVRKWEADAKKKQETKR
Kind of series: native MS. As to conditions: 2.5-fold excess KorA displaces Eσ70; recombinant protein; protein details: C-terminal His6 (pET21b).

Turning to “GTTACGCCAAGGACGAGTTTTAGCGGCTAAAGGTGTTGACGTGCGAGAAATGTTTAGCTAAACTTCTCTCATGTGCTGGCGGCTGTCACCGCTATGTTCA (double strand) [PkorA 100 bp (nMS)]”, the binding result (in series [1]; with KorA (plasmid RK2)) was “binds” in each case.

Values taken from paper PMC11790492 (Nature Microbiology, 2024).
